Data on one molecule can be found in PMC3034716.

No constants are given. Whether binding was seen depends on the method and setting.

This assay has as its target T1, ATP synthase α-subunit (endothelial cell membrane proteins) (human (endogenous in HUVEC)), P25705.
T1 chain: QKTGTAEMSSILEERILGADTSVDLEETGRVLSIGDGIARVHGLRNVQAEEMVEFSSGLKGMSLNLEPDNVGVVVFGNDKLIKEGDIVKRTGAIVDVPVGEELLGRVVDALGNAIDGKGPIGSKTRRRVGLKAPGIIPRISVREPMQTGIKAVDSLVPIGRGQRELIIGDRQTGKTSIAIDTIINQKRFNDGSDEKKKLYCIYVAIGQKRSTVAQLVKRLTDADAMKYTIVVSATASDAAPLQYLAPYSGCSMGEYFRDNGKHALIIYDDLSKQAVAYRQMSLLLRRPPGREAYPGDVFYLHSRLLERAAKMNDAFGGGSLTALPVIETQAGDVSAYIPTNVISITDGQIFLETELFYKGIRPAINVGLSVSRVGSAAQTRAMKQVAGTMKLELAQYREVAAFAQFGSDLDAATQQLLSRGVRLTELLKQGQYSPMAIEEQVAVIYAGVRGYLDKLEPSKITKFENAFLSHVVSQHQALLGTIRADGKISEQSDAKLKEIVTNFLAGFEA
The assay can be described thus: far-Western, overlay or dot blot; HUVEC membrane-enriched proteins resolved on bidimensional gels, blotted onto PVDF, incubated with 2 µg/ml recombinant hsp60, probed with anti-hsp60 mAb (clone LK-1); additional spots cut from a Coomassie-stained gel and identified by MALDI mass spectrometry; only the binder purified. As to conditions: remark: other sources report otherwise.

B1: recombinant hsp60, P10809 27-573 (protein)
chain: AKDVKFGADARALMLQGVDLLADAVAVTMGPKGRTVIIEQSWGSPKVTKDGVTVAKSIDLKDKYKNIGAKLVQDVANNTNEEAGDGTTTATVLARSIAKEGFEKISKGANPVEIRRGVMLAVDAVIAELKKQSKPVTTPEEIAQVATISANGDKEIGNIISDAMKKVGRKGVITVKDGKTLNDELEIIEGMKFDRGYISPYFINTSKGQKCEFQDAYVLLSEKKISSIQSIVPALEIANAHRKPLVIIAEDVDGEALSTLVLNRLKVGLQVVAVKAPGFGDNRKNQLKDMAIATGGAVFGEEGLTLNLEDVQPHDLGKVGEVIVTKDDAMLLKGKGDKAQIEKRIQEIIEQLDVTTSEYEKEKLNERLAKLSDGVAVLKVGGTSDVEVNEKKDRVTDALNATRAAVEEGIVLGGGCALLRCIPALDSLTPANEDQKIGIEIIKRTLKIPAMTIAKNAGVEGSLIVEKIMQSSSEVGYDAMAGDFVNMVEKGIIDPTKVVRTALLDAAGVASLLTTAEVVVTEIPKEEKDPGMGAMGGMGGGMGGGMF
Turning to B1, the binding entry was “no binding”.
